This test can be described thus: qHTS Assay for Modulators of Lamin A Splicing. The conditions noted are these: HeLa LMNA splicing GFP/RFP minigene ratio, 48 h. In a few lines: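 S3 HeLa stable clones carrying a lamin A-EGFP splicing minigene plus DsRed2 were seeded at 600 cells/well in Opti-MEM with 2% FBS, pin-dosed and incubated 48 h at 37°C. Acumen cytometry (488 nm) gave the GFP/RFP total-intensity ratio.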
(Quantitative high-throughput screening tests each substance at several concentrations.)

Where [1] appears, read: measured here: RFP viability control channel.
Setting [2] is: measured here: GFP splicing reporter channel.

Experimental findings from PubChem BioAssay AID1487 (National Center for Advancing Translational Sciences (NCATS), 2009) are described below.

The term AC50 denotes the midpoint of the concentration-response curve, whichever way the signal moves.

Some of the results follow. These are further read-outs of the screen, such as a control signal, another cell line or another target. No call is given for them. The list favours compounds with an active or inconclusive main result. Potencies come from curve fits of mixed quality, noted in brackets.

For the molecule `Cc1cc(C(=O)N2CCN(c3cccc(Cl)c3)CC2)c(C)o1`, the AC50 under setting [1] is 5.62 µM [rising, single point].
For `N#Cc1sc2nc3c(c(-c4ccco4)c2c1N)CCCC3`, the AC50 under setting [2] was 12.6 µM [rising, single point].
Still for that read-out and setting: the value for `O=C(CNC(=S)N(Cc1ccccc1F)C1CCCCC1)NCCCN1CCOCC1` was 3.98 µM [falling, single point].
In the case of `CN(C)c1nc(N(C)C)nc(N(C#N)CCOc2ccccc2)n1`, under setting [1], the AC50 was 17.8 µM [rising, single point].
As to `c1ccc2c(c1)OCCOCCOCCOCCOc1ccccc1OCCOCCOCCO2`, the AC50 under setting [2] is 0.224 µM [rising, full curve, poor fit] and the AC50 under setting [1] is 0.282 µM [rising, full curve].
As for `Cc1ccc2[nH]c(SCC(=O)N3CCOCC3)nc2c1C`, the AC50 under setting [2] is 14.1 µM [falling, single point].
`O=C1C(=C(O)c2ccccc2)C(=O)c2ccccc21`: the AC50 under setting [2] is 14.1 µM [falling, partial curve, poor fit] and the AC50 under setting [1] is 17.8 µM [falling, partial curve].
Take `COc1cccc(/C=N/NC(=O)c2cc3cc([N+](=O)[O-])ccc3s2)c1O`: the AC50 under setting [2] was 35.5 µM [falling, single point] and the AC50 under setting [1] was 0.447 µM [rising, full curve].
For the molecule `COc1ccc(NC(=S)Nc2cccc(Cl)c2Cl)cc1OC`, under setting [1], the AC50 is 15.8 µM [rising, single point].
As for `O=C(NC(=S)Nc1ncc(Br)cc1Br)c1cncc(Br)c1`, the AC50 by setting is: under setting [2], 5.01 µM [rising, partial curve, poor fit]; under setting [1], 15.8 µM [rising, single point].
As to `CCN1CCN(C(=O)c2cc3c(s2)-c2ccccc2S(=O)(=O)C3)CC1`, the AC50 under setting [1] was 1.41 µM [rising, partial curve].
As to `Cc1nnc(SCc2cccc(CSc3nnc(C)s3)c2)s1`, the AC50 under setting [1] is 35.5 µM [rising, single point].
`Cc1ccc(C)c(NS(=O)(=O)c2cc(C(=O)NCCSC3CCCCC3)ccc2C)c1`: the AC50 by setting is: under setting [2], 35.5 µM [falling, single point]; under setting [1], 20 µM [falling, single point].
Turning to `COc1cc(OC)cc(C(=O)N2CCC(N3CCN(c4ccccc4OC)CC3)CC2)c1`, the AC50 under setting [2] was 22.4 µM [rising, single point].
As to `Cc1ccc(-c2ccc(/C=C/C(=O)c3ccccc3)o2)cc1`, under setting [1], the AC50 is 20 µM [rising, partial curve, poor fit].
For `CC(C)(C)C1CCC2(CC1)C(C#N)=C(SCC(=O)Nc1ccccc1)NC(=O)C2C#N` (centres undefined), the concentration at half-maximal activity (AC50) under setting [1] was 2.51 µM [rising, full curve].
In the case of `Cn1c(N)c(N=Nc2ccc(S(N)(=O)=O)cc2)c(=O)n(C)c1=O`, the AC50 under setting [2] is 35.5 µM [rising, single point].
As to `Cn1nnc2c(N3CCCCC3)nccc21`, the AC50 was 17.8 µM [rising, single point] under setting [2] and 5.62 µM [rising, single point] under setting [1].
In the case of `O=C(CNC(=S)NC(=O)c1ccc(F)cc1)c1ccccc1`, under setting [1], the AC50 was 25.1 µM [falling, partial curve, poor fit].
As for `COc1cc(NC(=O)CN2CCCCC2C)c(C)cc1[N+](=O)[O-]` (centres undefined), the AC50 under setting [2] is 12.6 µM [rising, partial curve] and the AC50 under setting [1] was 4.47 µM [rising, partial curve].
Consider `Cc1nnc2n(Cc3ccccc3)c(=O)c3c4c(sc3n12)COC(C(C)C)C4` (centres undefined), for which, under setting [1], the AC50 is 0.794 µM [falling, full curve].
Regarding `Cc1cc(C)nc(N2CCCC(CCC(=O)NCc3ccc(F)c(F)c3)C2)n1` (centres undefined), the AC50 runs as follows: under setting [2], 25.1 µM [falling, partial curve]; under setting [1], 35.5 µM [falling, single point].
In the case of `CN(C)c1nc(SCCOC(=O)Nc2ccccc2)nc(N(C)C)n1`, the AC50 under setting [1] was 25.1 µM [rising, single point].
As for `COC(=O)Nc1ccc(S(=O)(=O)N2CCC(C(=O)N(C)C3CCCCC3)CC2)cc1`, the AC50 under setting [2] is 0.00398 µM [rising, full curve, poor fit].
In the case of `CC1(C)OC(=O)C(=NNc2ccc(Br)cc2)C(=O)O1`, the AC50 is, setting by setting: under setting [2], 3.16 µM [rising, single point]; under setting [1], 12.6 µM [rising, single point].
For `CCOC(=O)CC(=O)CSc1nc2ccccc2c(=O)n1CCc1ccc(S(N)(=O)=O)cc1`, the AC50 is, setting by setting: under setting [2], 12.6 µM [falling, single point]; under setting [1], 15.8 µM [falling, single point].
For `O=S(=O)(c1ccc2c(c1)OCCO2)N1CCC(n2cnc3cc(F)ccc32)CC1`, the AC50 is, setting by setting: under setting [2], 0.00891 µM [rising, full curve, poor fit]; under setting [1], 12.6 µM [rising, partial curve].
Regarding `CC1CCCCN1CCCNC(=O)c1cc(Sc2ccc(Cl)cc2)nc2ccccc12` (centres undefined), the AC50 under setting [1] is 17.8 µM [rising, partial curve, poor fit].
In the case of `O=C1c2cccc3cccc(c23)C(=O)N1/N=C/c1ccc(O)cc1O`, the AC50 was 35.5 µM [rising, single point] under setting [2] and 35.5 µM [rising, single point] under setting [1].
On to `Cc1nc2cc(-c3ccccc3)sc2c(=O)n1N`, for which the AC50 under setting [2] was 8.91 µM [rising, partial curve].
In the case of `CC12CCC(C(=O)Nc3nc4ccc(Br)cc4s3)(OC1=O)C2(C)C` (centres undefined), the AC50 under setting [2] is 14.1 µM [rising, single point].
Consider `O=c1c2ccccc2nc(-c2ccco2)n1Cc1ccccc1`, for which the AC50 runs as follows: under setting [2], 7.94 µM [rising, partial curve, poor fit]; under setting [1], 8.91 µM [rising, partial curve, poor fit].
Regarding `O=c1cc(O)c2sc(Nc3ccc(F)c(Cl)c3)nc2[nH]1`, the concentration at half-maximal activity (AC50) under setting [2] was 35.5 µM [rising, single point].
Regarding `O=C(Nc1cccc(Cl)c1)c1ccc(F)c(S(=O)(=O)N2CCN(c3ccccn3)CC2)c1`, the AC50 by setting is: under setting [2], 7.08 µM [rising, partial curve]; under setting [1], 11.2 µM [rising, partial curve].
With `CCn1c(C)cc(/C=C2/NC(=O)N(Cc3ccccc3F)C2=O)c1C`, the AC50 under setting [2] is 5.01 µM [rising, partial curve].
For `O=C(CSc1nnc(-c2ccccc2)c(-c2ccccc2)n1)NC1CCS(=O)(=O)C1` (centres undefined), the AC50 under setting [1] was 7.94 µM [rising, partial curve].
As to `CSc1nc(-c2ccc(Cl)cc2Cl)[nH]c(=O)c1C#N`, the AC50 under setting [2] was 8.91 µM [rising, partial curve, poor fit] and the AC50 under setting [1] is 11.2 µM [rising, partial curve].
As for `O=C(NC(=S)Nc1ccccc1N1CCCCC1)c1ccccc1`, the AC50 under setting [1] was 20 µM [rising, partial curve, poor fit].
In the case of `CCCCNC(=O)c1onc(CSc2ccc(C)c(C)c2)c1C(=O)O`, the AC50 is, setting by setting: under setting [2], 25.1 µM [rising, single point]; under setting [1], 20 µM [rising, single point].
`O=C(Nc1nccs1)c1ccc2c(=O)n3c(nc2c1)CCCCC3`: the AC50 under setting [1] is 7.08 µM [rising, full curve].
As for `CN=C(c1ccc(C)cc1)n1c(=S)nc(-c2ccc(C)cc2)n(C)c1=S`, the half-maximal activity concentration (AC50) runs as follows: under setting [2], 12.6 µM [falling, partial curve, poor fit]; under setting [1], 28.2 µM [falling, partial curve].
`COc1ccc(-c2nc(C)c(CCNC(=O)C(=O)Nc3cc(C)cc(C)c3)s2)cc1OC`: the AC50 runs as follows: under setting [2], 20 µM [falling, partial curve, poor fit]; under setting [1], 17.8 µM [falling, single point].
Consider `CCc1nc2ccccc2n1Cc1ccccc1OC`, for which the AC50 runs as follows: under setting [2], 2.82 µM [rising, full curve, poor fit]; under setting [1], 7.94 µM [rising, partial curve].
Consider `O=C(c1ccco1)N1CCC(c2nc(-c3ccc(F)cc3)no2)CC1`, for which the AC50 is 35.5 µM [rising, single point] under setting [2] and 31.6 µM [rising, single point] under setting [1].
In the case of `c1ccc(Cn2nnc3c(N4CCN(Cc5ccc6c(c5)OCO6)CC4)ncnc32)cc1`, the AC50 under setting [1] is 12.6 µM [rising, single point].
For the molecule `O=c1oc2ccccc2c(Nc2ccc3ccccc3c2)c1[N+](=O)[O-]`, the AC50 by setting is: under setting [2], 10 µM [falling, partial curve, poor fit]; under setting [1], 10 µM [falling, partial curve].
As for `CN(C)CCNC(=O)c1cc2sc3ccccc3c2s1`, under setting [1], the AC50 was 0.1 µM [falling, full curve, poor fit].
For the molecule `COc1cc2nc(CSc3ncn[nH]3)[nH]c(=O)c2cc1OC`, the AC50 under setting [1] is 7.08 µM [rising, partial curve, poor fit].
`O=C(c1ccco1)N(CC1CCCO1)c1nc(-c2ccccc2)cs1` (centres undefined): under setting [1], the AC50 was 12.6 µM [rising, partial curve].
As to `c1ccc(CCc2nc(-c3ccc(-n4cccc4)cc3)no2)cc1`, the AC50 under setting [1] was 31.6 µM [rising, single point].
With `COc1ccc(N2C(=O)C(Cl)=C(Oc3cccc(OC)c3)C2=O)cc1`, the AC50 was 5.62 µM [falling, partial curve] under setting [2] and 10 µM [falling, partial curve, poor fit] under setting [1].
In the case of `O=C(NCCc1ccc2c(c1)OCCO2)c1cccc(F)c1`, the half-maximal activity concentration (AC50) under setting [1] is 11.2 µM [rising, partial curve].
With `CCCn1c(C(O)c2ccc(OCC)cc2)nc2ccccc21` (centres undefined), under setting [1], the AC50 was 15.8 µM [rising, partial curve].
In the case of `COc1cccc(/C=N/NC(=O)C(=O)NCc2ccco2)c1O`, under setting [1], the concentration at half-maximal activity (AC50) is 17.8 µM [rising, single point].
As for `Cc1ccsc1/C=N/NC(=O)CN1CCN(S(=O)(=O)c2ccc(Br)cc2)CC1`, the AC50 under setting [1] was 31.6 µM [rising, single point].
Turning to `CCn1cc(C(=O)NCc2ccc3c(c2)OCO3)c(=O)c2cc(F)c(N3CCN(C(=O)c4ccco4)CC3)cc21`, the concentration at half-maximal activity (AC50) by setting is: under setting [2], 7.94 µM [rising, partial curve, poor fit]; under setting [1], 7.94 µM [rising, partial curve, poor fit].
